Experimental data: patent publication US20240252596A1, “Injectable Polymeric Biopharmaceutical Formulations” (The Board of Trustees of the Leland Stanford Junior …, priority 2023, published 2024)

Legend:
[1] = Liquid carrier studies: suspension performance of BSA/MoNi (5%) microparticles at 460 mg/mL
[2] = Parameters of liquid carriers (density, viscosity, vapor pressure)

CC(=O)N(C)C [Dimethyl acetamide (DMAc), N,N-dimethylacetamide]
Suspension Performance [1]: + | Viscosity (@25 C.) [2]: 0.92
